Source: PubChem BioAssay AID493014 (National Center for Advancing Translational Sciences (NCATS), 2011)
This is one part of the list. These are further read-outs of the screen, such as a control signal, another cell line or another target. No call is given for them. Most of these compounds were active or inconclusive in the main read-out, so they are no random draw. Potencies come from curve fits of mixed quality, noted in brackets.

Assay: qHTS Assay to Find Inhibitors of Chronic Active B-Cell Receptor Signaling
Conditions: ABC-DLBCL IkBa-CBG/CBR reporter, luminescence ratio (green luciferase fused to IkBa over red control in TMD8 lymphoma cells), 4 h
Procedure, shortened: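 Cell line TMD8 (human ABC DLBCL), stably expressing tet-inducible CBG68-IkBa fusion and CBR; IMDM/0.5% FBS; cpd up to 46 uM; dox induction, 4 h, 37C/5% CO2; dual luminescence; green/red ratio; MG132 control.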

[1] = measured here: CBR red luminescence, cell number

Row | Compound | AC50 [1] | AC50 (measured here: IkBa-CBG green luminescence)
1 | Cc1nonc1C(=O)N/N=C/c1ccc(O)cc1O | 10 µM [falling, partial curve] | –
2 | CC1CCCN(C(=S)Nc2ccc(F)cc2)C1 (stereo not drawn) | 22.4 µM [rising, single point] | –
3 | O=C(N[C@@H]1c2ccccc2CC[C@@H]1OCc1ccccc1)c1ccc(-c2ccccc2)cc1 | 29.1 µM [rising, partial curve, poor fit] | –
4 | CN1CCC(=C2c3ccccc3C=Cc3ccccc32)CC1 | 5.8 µM [falling, partial curve] | –
5 | COc1cccc(NC(=O)C(=O)c2cn(CC(=O)N3CCCC3)c3ccccc23)c1 | 0.355 µM [falling, full curve, poor fit] | –
6 | CC(=O)Oc1ccc(-c2ccc(C(=O)O)cc2)cc1 | 20.6 µM [falling, partial curve] | –
7 | COc1cc(NC(=O)c2cc(OC)c(OC)c(OC)c2)ccc1NC(=O)c1cccs1 | 6.31 µM [rising, single point] | –
8 | CC(C)(C)C(=O)COC(=O)c1cc2ccccc2cc1O | 29.1 µM [rising, single point] | –
9 | Cc1ccccc1C(=O)N(CC(=O)Nc1sc(C)c(C)c1C(N)=O)C1CCCC1 | 0.562 µM [falling, partial curve, poor fit] | –
10 | Cn1c(NC(=O)c2ccc(Br)o2)cc(=O)n(C)c1=O | 1.46 µM [falling, partial curve, poor fit] | –
11 | O=S(=O)(c1ccccc1)N1CCN(c2nc3ccccc3s2)CC1 | 29.1 µM [rising, single point] | –
12 | CC(=O)c1sc(-c2ccccc2)nc1C | 10 µM [rising, partial curve, poor fit] | –
13 | COC(=O)/C(C#N)=C(/Nc1ccc(F)c(Cl)c1)C(F)(F)F | 0.224 µM [rising, full curve, poor fit] | –
14 | OC1CCCN(c2c3c(nc4cc(-c5cccc(F)c5)nn24)CCCC3)C1 (stereo not drawn) | 5.62 µM [falling, single point] | –
15 | C(=N\Nc1ncnc2nc[nH]c12)/c1cccs1 | 22.4 µM [falling, single point] | –
16 | COc1ccc(F)cc1Cn1nc(C(=O)O)c2ccccc2c1=O | 5.01 µM [falling, full curve] | –
17 | O=C(Nc1ccc(F)cc1)C(=O)C1C(=O)Nc2ccccc21 (stereo not drawn) | 10 µM [falling, partial curve, poor fit] | –
18 | COc1ccccc1N1CCN(C(=O)C2c3ccccc3Oc3ccccc32)CC1 | 2.82 µM [rising, full curve] | 11.2 µM [falling, partial curve]
19 | Cc1ccc2c(CC(=O)NCC3(N4CCOCC4)CCCCC3)coc2c1C | 20.6 µM [falling, partial curve, poor fit] | –
20 | COC(=O)c1ccc(Cl)c(NC(=O)CSc2nnc(-c3ccncc3)o2)c1 | 11.2 µM [falling, single point] | –
21 | NS(=O)(=O)c1ccc(N=Nc2ccc(O)c3ncccc23)cc1 | 7.08 µM [rising, partial curve] | –

Row | Compound | AC50 [1] | AC50 (measured here: IkBa-CBG green luminescence)
22 | O=C(CCc1ccccc1)Nc1nc2n(n1)C(c1ccccc1)CC(=O)N2 (stereo not drawn) | 0.562 µM [falling, full curve, poor fit] | –
23 | COc1ccccc1/C=N/NC(=O)c1cccc(NC(=O)c2ccccc2Cl)c1 | 2.82 µM [falling, partial curve, poor fit] | –
24 | COc1ccc(C2NC3=C(CCC3)C3(C#N)C4(N=C(N)C23C#N)OCCO4)cc1 (stereo not drawn) | 35.5 µM [falling, partial curve, poor fit] | –
25 | Cc1ccc(C2NC(c3ccc(C)cc3)C(C)C(=O)C2C)cc1 (stereo not drawn) | 14.1 µM [rising, single point] | –
26 | O=C(c1ccco1)N1CCN(c2cccc(Cl)c2)CC1 | 0.82 µM [rising, full curve, poor fit] | –
27 | O=C(NCC1CCN(Cc2cccc(Cl)c2)CC1)Nc1ccc(Cl)cc1 | 2.51 µM [rising, partial curve, poor fit] | –
28 | Cc1ccnc(NS(=O)(=O)c2ccc(NC(=O)c3oc4ccccc4c3C)cc2)n1 | 0.562 µM [falling, partial curve, poor fit] | –
29 | CCCn1c(CCC(=O)Nc2ccccc2Cc2ccccc2)nc2cc(S(=O)(=O)N3CCOCC3)ccc21 | 6.51 µM [rising, single point] | –
30 | COc1cccc(CNC(=O)Nc2cccs2)c1 | 5.62 µM [falling, partial curve, poor fit] | –
31 | COC(=O)c1ccccc1NC(=O)/C=C/C(=O)O | 29.1 µM [falling, single point] | –
32 | COc1ccccc1NC(=O)C(C)OC(=O)c1nc2nc(C)cc(C)n2n1 (stereo not drawn) | 0.411 µM [rising, full curve, poor fit] | –
33 | Cc1ccc2nc(SCC(=O)Nc3cccc4ccccc34)nc(=O)n2c1 | 0.13 µM [falling, full curve, poor fit] | –
34 | C[C@H](NC(=O)N1CCn2c1nc1ccccc12)C(=O)NCc1ccc2c(c1)OCO2 | 35.5 µM [falling, single point] | –
35 | O=C(/C=C/c1ccccc1)NCCC1=CCCCC1 | 29.1 µM [falling, single point] | –
36 | C=CCNCC#CCOc1ccc(OC)cc1 | 0.411 µM [rising, full curve, poor fit] | –
37 | Cc1nccc(-c2cc(-c3ccc(Cl)cc3Cl)no2)n1 | 2 µM [rising, full curve, poor fit] | –
38 | Cn1cc(CN(CCO)Cc2cccs2)c(-c2cccc(Cl)c2)n1 | 22.4 µM [falling, single point] | –
39 | CN(Cc1ccccc1F)c1ncnc2sccc12 | 22.4 µM [falling, single point] | –
40 | CCC(=O)Nc1cccc(NC(=O)c2ccc(Br)cc2)c1 | 1.46 µM [falling, full curve, poor fit] | –
41 | CN(CC(=O)Nc1cccc(F)c1)CC(=O)N1CCCCC1 | 29.1 µM [rising, partial curve, poor fit] | –
42 | COc1ccc(C(=O)O/N=C(\C)c2cnccn2)cc1 | 15.8 µM [rising, partial curve, poor fit] | –

Some of these compounds in order of SMILES length, descending:
Row | Compound | AC50 [1] | AC50 (measured here: IkBa-CBG green luminescence)
33 | Cc1ccc2nc(SCC(=O)Nc3cccc4ccccc34)nc(=O)n2c1 | 0.13 µM [falling, full curve, poor fit] | –
38 | Cn1cc(CN(CCO)Cc2cccs2)c(-c2cccc(Cl)c2)n1 | 22.4 µM [falling, single point] | –
37 | Cc1nccc(-c2cc(-c3ccc(Cl)cc3Cl)no2)n1 | 2 µM [rising, full curve, poor fit] | –
